Source: patent US20240239872A1
Results are given in words; binding and its absence hold for the method and conditions named.

What was measured:
Assay in all cases: dot blot; also Western blot and ELISA
[1] = substrate: CP of chilli mottle virus (PepMoV) (genus Potyvirus) (chilli mottle virus (PepMoV))
[2] = substrate: CP of chilliveinal mottle virus (PVMV) (genus Potyvirus) (chilliveinal mottle virus (PVMV))
[3] = substrate: CP of tobacco mosaic virus (TMV) (genus Tobamovirus) (Tobacco mosaic virus)
[4] = substrate: CP of tomato mosaic virus (ToMV) (genus Tobamovirus) (Tomato mosaic virus)
[5] = substrate: CP of tomato mottle mosaic virus (ToMMV) (genus Tobamovirus) (Tomato mottle mosaic virus)
[6] = substrate: CP of turnip mosaic virus (TuMV) (genus Potyvirus) (Turnip mosaic virus)

Measured: binding

B1: monoclonal antibody N1 (antibody, V domains shown)
VH: EVQLVESGGGLVQPGGSLKLSCAASGFTFSSYGMSWVRQSPDKRLEWVATINNNGGSTYYPDSVKGRFTISRDNAKNTLYLQMSSLKSEDTAVYYCARDAAFDCWGQGTTLTVSS
VL: DIVMSQSPSSLAVSAGEKVTMSCKSSQSLLNSRTRKNYLAWYQQKPGQSPKLLIYWASTRESGVPDRFTGSGSGTDFTLTISSVQAEDLAVYYCKQSYNLFTFGSGTKLEIK
no binding: all assays above

B2: monoclonal antibody M3 (antibody, V domains shown)
VH: EVILVESGGGLVKPGGSLRLSCAASGFTFSSHPLSWVRQSPDKRLEWVASISSGGRYTYYPDSVKGRLTISRDNAKNILYLHMNSLRSEDTAMYYCARRGSTATAWFAYWGQGTLVTVSA
VL: DIALTQSPASLAVSLGQRATISCKASQSVDYDGDSYMSWYQQKPGQPPKLLIYGASNLESGIPARFSGSGSGTDFTLNIHPVEEEDAATYYCQQSNEDLPTFGGGTKLEIK
no binding: all assays above

B3: monoclonal antibody C1 (antibody, V domains shown)
VH: EVQLQQSGAELVRPGALVKLSCKASGFNIKDYYMHWVKQRPEEGLEWIGWIDPENGNTIYDPKFQGKASITADTSSNTVRLQLSSLTSEDTAVYYCARERGAYWGQGTLVTVSA
VL: QIVLTQSPAIMSASPGEKVTMTCSASSSVSYMYWFQQKPGSSPRLLIYDTSNLASGVPVRFSGSGSGTSYSLTISRMEAEDAATFYCQQWSSYPLTFGAGTKLELK
no binding: all assays above
